These are yes or no findings as the source states them, for the method shown. Some entries that bind do so weakly or less than the wild type.
Target: T1, mouse urokinase plasminogen activator receptor (uPAR) (mouse) (UniProt P35456)
T1 sequence (looked up): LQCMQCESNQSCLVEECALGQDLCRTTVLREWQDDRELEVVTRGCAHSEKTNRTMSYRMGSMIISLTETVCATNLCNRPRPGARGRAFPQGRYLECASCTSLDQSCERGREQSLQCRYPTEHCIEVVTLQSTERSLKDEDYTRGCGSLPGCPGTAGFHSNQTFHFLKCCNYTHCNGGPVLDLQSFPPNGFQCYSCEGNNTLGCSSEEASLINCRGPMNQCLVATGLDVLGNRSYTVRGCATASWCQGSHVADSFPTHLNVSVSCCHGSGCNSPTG
Assay: flow cytometry on NALM6 and Eµ-ALL01 cells engineered to overexpress mouse uPAR against wild type cells

By UniProt entry, the sequences of proteins in these tests, tags left out. Where a name states a change or a piece, a line headed by the entry shows the natural chain unless it says otherwise.
UniProt P10747: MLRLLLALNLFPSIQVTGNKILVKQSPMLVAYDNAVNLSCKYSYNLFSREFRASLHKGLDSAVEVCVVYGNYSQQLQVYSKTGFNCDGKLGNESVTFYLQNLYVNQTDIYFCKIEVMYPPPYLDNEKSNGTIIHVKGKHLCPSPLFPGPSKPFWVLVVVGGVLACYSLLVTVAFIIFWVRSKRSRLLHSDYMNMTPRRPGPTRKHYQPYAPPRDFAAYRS

binding: binds
Substance: m.uPAR-h.28z chimeric antigen receptor (human SFG-m.uPAR-h28z CAR) (from UniProt P10747 114-220; P20963 52-163)

Source: patent US20220098320A1, “SENOLYTIC CAR-T CELLS TARGETING UPAR, A CELL SURFACE AND SECRETED […]” (MEMORIAL SLOAN KETTERING CANCER CENTER, priority 2019, published 2022)
